PubChem BioAssay AID1259254, NCATS | 2017
Aim: 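Finding genes that stop cells copying their DNA twice in one cycle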 (primary screen). Cell system: human HCT116 colorectal cancer cells. Knock-down reagent: single siRNA against human genes. Time to read-out: 3 days. Detection: 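Imaged Hoechst DNA stain sorts each cell into a cycle phase by DNA amount; per plate, G2 fraction set to 0% for non-targeting and 100% for GMNN siRNA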. Scale: G2 robust z-score and G2 cells, % of GMNN control: higher = more G2 cells, more excess DNA replication; raw share of cells in G2: higher = larger share of cells with G2 DNA content. Active means: 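Active siRNAs have a G2 robust z of 5 or more median absolute deviations over the median, which in these data means about 38% or higher of GMNN control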.
This is an unselected part of about 59,000 reagents tested. About 1,550 of them (2.6%) were called active. 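G2 share is only a proxy for re-replication; each gene was hit by three separate siRNAs, and active genes were retested.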 Raw values vary from plate to plate and are shown uncorrected. Reagents against one gene are numbered here. The record does not give: the amount of reagent.

Gene	reagent no.	G2 robust z-score	G2 cells, % of GMNN control	raw share of cells in G2 (%)	activity call
ZNF628 (zinc finger protein 628)	1	0.258	4.78	4.74	inactive
ZNF628 (zinc finger protein 628)	2	0.336	5.33	5.02	inactive
ZNF628 (zinc finger protein 628)	3	1.06	10.4	7.17	inactive
PRODH2 (proline dehydrogenase 2)	1	0.233	4.61	5.9	inactive
PRODH2 (proline dehydrogenase 2)	2	2.74	22.2	14.9	inactive
PRODH2 (proline dehydrogenase 2)	3	0.783	8.48	7.35	inactive
NXF2B (nuclear RNA export factor 2B)	1	-0.463	-0.292	2.77	inactive
NXF2B (nuclear RNA export factor 2B)	2	-1.02	-4.21	2.01	inactive
NXF2B (nuclear RNA export factor 2B)	3	-0.205	1.53	4.12	inactive
ABCD1 (ATP binding cassette subfamily D member 1)	1	-1.41	-6.94	2.61	inactive
ABCD1 (ATP binding cassette subfamily D member 1)	2	0.59	7.12	7.14	inactive
ABCD1 (ATP binding cassette subfamily D member 1)	3	-0.347	0.524	4.19	inactive
C21orf91 (chromosome 21 open reading frame 91)	1	0.28	4.94	5.37	inactive
C21orf91 (chromosome 21 open reading frame 91)	2	-0.159	1.85	5.05	inactive
C21orf91 (chromosome 21 open reading frame 91)	3	0.0185	3.1	4.22	inactive
GLT8D2 (glycosyltransferase 8 domain containing 2)	1	0.239	4.65	5.88	inactive
GLT8D2 (glycosyltransferase 8 domain containing 2)	2	0.000248	2.97	5.89	inactive
GLT8D2 (glycosyltransferase 8 domain containing 2)	3	-0.868	-3.14	4.12	inactive
POT1 (protection of telomeres 1)	1	-0.826	-2.84	3.06	inactive
POT1 (protection of telomeres 1)	2	1.28	12	8.16	inactive
POT1 (protection of telomeres 1)	3	-0.53	-0.762	5.82	inactive
DNAJC5G (DnaJ heat shock protein family (Hsp40) member C5 gamma)	1	0.326	5.26	4.9	inactive
DNAJC5G (DnaJ heat shock protein family (Hsp40) member C5 gamma)	2	-0.745	-2.28	2.38	inactive
DNAJC5G (DnaJ heat shock protein family (Hsp40) member C5 gamma)	3	0.0313	3.19	4.64	inactive
C8orf33 (chromosome 8 open reading frame 33)	1	2.6	21.2	13.8	inactive
C8orf33 (chromosome 8 open reading frame 33)	2	-0.318	0.728	4.94	inactive
C8orf33 (chromosome 8 open reading frame 33)	3	-0.889	-3.29	1.83	inactive
RAD51AP1 (RAD51 associated protein 1)	1	-0.0486	2.63	6.01	inactive
RAD51AP1 (RAD51 associated protein 1)	2	-0.542	-0.844	3.79	inactive
RAD51AP1 (RAD51 associated protein 1)	3	0.911	9.38	6.68	inactive
CYP27C1 (cytochrome P450 family 27 subfamily C member 1)	1	-0.987	-3.97	3.41	inactive
CYP27C1 (cytochrome P450 family 27 subfamily C member 1)	2	0.481	6.35	6.6	inactive
CYP27C1 (cytochrome P450 family 27 subfamily C member 1)	3	-0.932	-3.59	4.35	inactive
RNASE10 (ribonuclease A family member 10 (inactive))	1	3.54	27.9	14.5	inactive
RNASE10 (ribonuclease A family member 10 (inactive))	2	0.953	9.68	8.74	inactive
RNASE10 (ribonuclease A family member 10 (inactive))	3	-1.12	-4.92	3.78	inactive
LOC100287477 (zinc finger protein 420-like)	1	-0.944	-3.67	2.39	inactive
LOC100287477 (zinc finger protein 420-like)	2	0.822	8.75	6.47	inactive
LOC100287477 (zinc finger protein 420-like)	3	0.323	5.24	4.71	inactive

An excerpt from above, reduced to “raw share of cells in G2 (%)”.
NXF2B (nuclear RNA export factor 2B) #3: 4.12
ABCD1 (ATP binding cassette subfamily D member 1) #1: 2.61
ABCD1 (ATP binding cassette subfamily D member 1) #2: 7.14
ABCD1 (ATP binding cassette subfamily D member 1) #3: 4.19
C21orf91 (chromosome 21 open reading frame 91) #1: 5.37
C21orf91 (chromosome 21 open reading frame 91) #2: 5.05
C21orf91 (chromosome 21 open reading frame 91) #3: 4.22
GLT8D2 (glycosyltransferase 8 domain containing 2) #1: 5.88
GLT8D2 (glycosyltransferase 8 domain containing 2) #2: 5.89
GLT8D2 (glycosyltransferase 8 domain containing 2) #3: 4.12
POT1 (protection of telomeres 1) #1: 3.06

Next entries:
Gene	reagent no.	G2 robust z-score	G2 cells, % of GMNN control	raw share of cells in G2 (%)	activity call
MAFG (MAF bZIP transcription factor G)	1	2.62	21.4	13.9	inactive
MAFG (MAF bZIP transcription factor G)	2	-1.23	-5.7	3.16	inactive
MAFG (MAF bZIP transcription factor G)	3	-1.41	-6.98	0.891	inactive
PLAGL2 (PLAG1 like zinc finger 2)	1	-0.959	-3.78	1.96	inactive
PLAGL2 (PLAG1 like zinc finger 2)	2	-0.803	-2.68	3.59	inactive
PLAGL2 (PLAG1 like zinc finger 2)	3	2.09	17.7	9.52	inactive
METTL2B (methyltransferase 2B, tRNA N3-cytidine)	1	0.748	8.23	7.77	inactive
METTL2B (methyltransferase 2B, tRNA N3-cytidine)	2	-1.18	-5.3	4.11	inactive
METTL2B (methyltransferase 2B, tRNA N3-cytidine)	3	-0.167	1.79	5.08	inactive
ARHGAP24 (Rho GTPase activating protein 24)	1	-0.908	-3.42	2.97	inactive
ARHGAP24 (Rho GTPase activating protein 24)	2	0.00962	3.04	4.36	inactive
ARHGAP24 (Rho GTPase activating protein 24)	3	-0.65	-1.61	1.92	inactive
ACOD1 (aconitate decarboxylase 1)	1	0.561	6.92	6.38	inactive
ACOD1 (aconitate decarboxylase 1)	2	-0.827	-2.85	2.33	inactive
ACOD1 (aconitate decarboxylase 1)	3	-0.63	-1.47	2.95	inactive
CDC37P1 (cell division cycle 37 pseudogene 1)	1	0.342	5.37	6.94	inactive
CDC37P1 (cell division cycle 37 pseudogene 1)	2	0.973	9.82	7.14	inactive
CDC37P1 (cell division cycle 37 pseudogene 1)	3	0.527	6.67	6.31	inactive
DTX1 (deltex E3 ubiquitin ligase 1)	1	-0.743	-2.26	2.56	inactive
DTX1 (deltex E3 ubiquitin ligase 1)	2	0.192	4.32	6.87	inactive
DTX1 (deltex E3 ubiquitin ligase 1)	3	-0.358	0.451	3.27	inactive
VPS36 (vacuolar protein sorting 36 homolog)	1	-0.338	0.591	4.08	inactive
VPS36 (vacuolar protein sorting 36 homolog)	2	-0.716	-2.07	3.76	inactive
VPS36 (vacuolar protein sorting 36 homolog)	3	0.475	6.31	5.24	inactive
TRAPPC2L (trafficking protein particle complex subunit 2L)	1	0.495	6.45	5.91	inactive
TRAPPC2L (trafficking protein particle complex subunit 2L)	2	3.25	25.8	15.2	inactive
TRAPPC2L (trafficking protein particle complex subunit 2L)	3	0.863	9.04	6.18	inactive
NUP214 (nucleoporin 214)	1	0.235	4.62	7.55	inactive
NUP214 (nucleoporin 214)	2	-0.122	2.11	5.17	inactive
NUP214 (nucleoporin 214)	3	4.35	33.6	16.8	inactive
